Experimental data: PubChem BioAssay AID1259254 (NCATS, 2017)

Screen: 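Finding genes that stop cells copying their DNA twice in one cycle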 (primary screen)
System: human HCT116 colorectal cancer cells
Reagents: single siRNA against human genes
Time to read-out: 3 days
Detection: 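Imaged Hoechst DNA stain sorts each cell into a cycle phase by DNA amount; per plate, G2 fraction set to 0% for non-targeting and 100% for GMNN siRNA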
Direction: G2 robust z-score: higher = more G2 cells, more excess DNA replication
Active means: 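Active siRNAs have a G2 robust z of 5 or more median absolute deviations over the median, which in these data means about 38% or higher of GMNN control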
The whole screen tested about 59,000 reagents; below is a part drawn at random. Of all reagents, about 1,550 (2.6%) got an active call. 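G2 share is only a proxy for re-replication; each gene was hit by three separate siRNAs, and active genes were retested.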 Unmarked entries are inactive. Reagents against one gene are numbered here. Further read-outs or replicates are left out here. Reagent sequences are not shown. Not given: the amount of reagent.

G2 robust z-score, by gene and reagent
FCHSD2 (FCH and double SH3 domains 2): #1 -0.363; #2 0.581; #3 0.819
BHMT (betaine--homocysteine S-methyltransferase): #1 -1.27; #2 -1.03; #3 1.71
HELB (DNA helicase B): #1 -0.168; #2 -0.36; #3 0.263
UFC1 (ubiquitin-fold modifier conjugating enzyme 1): #1 2.24; #2 -0.101; #3 1.29
CAMP (cathelicidin antimicrobial peptide): #1 -0.573; #2 0.565; #3 6.12 (active)
FAM170A (family with sequence similarity 170 member A): #1 0.287; #2 -0.283; #3 0.483
SCIMP (SLP adaptor and CSK interacting membrane protein): #1 0.202; #2 1.62; #3 -0.443
SACK1G (scaffolding CK1 anchoring protein G): #1 0.896; #2 -0.316; #3 0.209
RPS17P16 (ribosomal protein S17 pseudogene 16): #1 4.44; #2 -0.968; #3 2.1
LYPD4 (LY6/PLAUR domain containing 4): #1 -0.184; #2 3.19; #3 -0.437

Records above with an active call:
G2 robust z-score, by gene and reagent
CAMP (cathelicidin antimicrobial peptide): #3 6.12 (active)
